Test results: PMC12501846

Chains of the proteins cited; added tags and fusions are not shown. Lines headed by an entry give the natural chain unless they say otherwise; changes in a name come on top.
UniProt P35222: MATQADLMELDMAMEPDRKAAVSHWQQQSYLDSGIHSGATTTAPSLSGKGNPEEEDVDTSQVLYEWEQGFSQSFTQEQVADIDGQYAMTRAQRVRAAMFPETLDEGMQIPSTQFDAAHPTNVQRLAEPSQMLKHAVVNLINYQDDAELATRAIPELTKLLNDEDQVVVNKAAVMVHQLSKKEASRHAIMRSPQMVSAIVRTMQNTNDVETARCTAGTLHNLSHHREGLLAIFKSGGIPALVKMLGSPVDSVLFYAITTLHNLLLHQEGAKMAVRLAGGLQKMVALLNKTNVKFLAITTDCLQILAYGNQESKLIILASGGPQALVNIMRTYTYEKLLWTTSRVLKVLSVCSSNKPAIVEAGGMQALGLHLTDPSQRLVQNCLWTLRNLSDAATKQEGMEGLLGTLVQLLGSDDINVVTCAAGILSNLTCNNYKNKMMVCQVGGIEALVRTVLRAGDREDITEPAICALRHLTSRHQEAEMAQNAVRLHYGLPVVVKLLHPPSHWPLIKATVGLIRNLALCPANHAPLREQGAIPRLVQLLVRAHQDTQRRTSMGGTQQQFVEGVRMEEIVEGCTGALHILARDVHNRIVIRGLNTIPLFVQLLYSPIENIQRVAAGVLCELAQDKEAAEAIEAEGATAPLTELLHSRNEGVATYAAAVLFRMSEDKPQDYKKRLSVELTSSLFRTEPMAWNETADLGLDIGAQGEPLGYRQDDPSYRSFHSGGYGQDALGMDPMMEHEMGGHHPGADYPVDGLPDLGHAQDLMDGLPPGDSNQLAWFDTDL

Tests used:
[1] = biological target: T1, Tcf3, endogenous (mouse (endogenous in ESCs)) (UniProt Q9Z1J1); test: co-IP; ESCs ectopically expressing Ctnnb1 S33Y, K49R or K49Q, followed by IP; binding to Nanog or Tcf3
T1 sequence: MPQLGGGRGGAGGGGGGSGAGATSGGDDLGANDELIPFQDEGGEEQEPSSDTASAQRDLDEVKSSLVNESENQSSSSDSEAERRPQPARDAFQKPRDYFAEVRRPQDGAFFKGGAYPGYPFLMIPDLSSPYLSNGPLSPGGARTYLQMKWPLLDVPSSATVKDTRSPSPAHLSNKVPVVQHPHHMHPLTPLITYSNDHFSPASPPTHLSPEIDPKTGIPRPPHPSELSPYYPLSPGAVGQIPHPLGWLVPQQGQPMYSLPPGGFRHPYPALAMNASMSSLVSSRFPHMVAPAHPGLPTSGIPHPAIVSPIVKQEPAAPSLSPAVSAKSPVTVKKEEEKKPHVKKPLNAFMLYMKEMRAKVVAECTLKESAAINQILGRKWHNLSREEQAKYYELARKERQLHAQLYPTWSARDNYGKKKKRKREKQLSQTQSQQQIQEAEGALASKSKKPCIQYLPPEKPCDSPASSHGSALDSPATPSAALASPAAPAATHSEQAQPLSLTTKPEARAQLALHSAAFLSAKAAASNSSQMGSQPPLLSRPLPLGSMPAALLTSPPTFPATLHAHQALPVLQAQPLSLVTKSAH

[2] = biological target: T2, Nanog, endogenous (mouse (endogenous in ESCs and EpiSCs)) (UniProt Q80Z64); test: as above
T2 sequence: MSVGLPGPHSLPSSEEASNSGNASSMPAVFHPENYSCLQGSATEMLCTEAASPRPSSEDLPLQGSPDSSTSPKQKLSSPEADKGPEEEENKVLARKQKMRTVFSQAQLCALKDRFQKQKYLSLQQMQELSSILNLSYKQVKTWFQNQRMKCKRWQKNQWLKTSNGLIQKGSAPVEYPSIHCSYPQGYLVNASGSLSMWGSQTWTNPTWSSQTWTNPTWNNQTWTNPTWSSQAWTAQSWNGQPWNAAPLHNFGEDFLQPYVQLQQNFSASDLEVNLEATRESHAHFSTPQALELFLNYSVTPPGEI

[3] = biological target: T3, Nanog fused to NanoLuc at its N-terminus (UniProt Q80Z64); test: FRET or BRET; NanoBRET in transfected HEK293T cells; NanoLuc-fused Nanog as donor, HaloTag-Ctnnb1 with NanoBRET 618 ligand as acceptor; 5 h at 37 °C in Opti-MEM
T3 sequence: T2 sequence

[4] = biological target: T4, Nanog fused to NanoLuc at its C-terminus (UniProt Q80Z64); test: as above
T4 sequence: T2 sequence

binding [1]	binding [2]	binding [3]	binding [4]	Substance
binds	binds	–	–	HA-Ctnnb1 S33Y K49R (deacetylation mimic) (from UniProt P35222)
–	–	binds	binds	HaloTag-Ctnnb1 K49R (from UniProt P35222)

Results are given in words; binding and its absence hold for the method and conditions named. Binding seen in cells or lysates may run through a third protein. A result given as binding can be weak or reduced; the word gives no strength. For some of these results: Tags and fused reporters may be left off the sequences shown.
